{
  "source": "PubChem BioAssay AID186",
  "about": "(DTP/NCI, 2004)",
  "test_system": "B6D2F1 mice, nontumored toxicity test, survival",
  "assay": "NCI In Vivo Anticancer Drug Screen. Data for tumor model Nontumored Animals (Toxicity Test) in B6D2F1 (BDF1) mice",
  "note": "The mice bore no tumour; each value counts animals alive of those treated. Survivors were counted at the toxicity check, usually on the fifth day, unless a day is given; later deaths do not show. Schedule codes are those of the source, taken here to give the interval after Q, in days (D) or hours (H), and the number of doses after X. Some entries were tested several times; the results are listed from low to high.",
  "data": [
    {"smiles": "O=P1(NCCCl)OCCCN1CCCl", "note": "(centres undefined)", "values": [
      {"measurement": "survivor count", "setting": "dose: 39.0 mg/kg/injection, schedule: Q01DX015 (ip), vehicle: water", "result": "6 of 6"},
      {"measurement": "survivor count", "setting": "dose: 65.0 mg/kg/injection, schedule: Q01DX015 (ip), vehicle: water", "result": "6 of 6"},
      {"measurement": "survivor count", "setting": "dose: 108.0 mg/kg/injection, schedule: Q01DX015 (ip), vehicle: water", "result": "6 of 6"},
      {"measurement": "survivor count", "setting": "dose: 108.0 mg/kg/injection, schedule: Q07DX003 (ip), vehicle: water", "result": "6 of 6"},
      {"measurement": "survivor count", "setting": "dose: 180.0 mg/kg/injection, schedule: Q01DX001 (ip), vehicle: saline", "result": "6 of 6"},
      {"measurement": "survivor count", "setting": "dose: 180.0 mg/kg/injection, schedule: Q01DX001 (ip), vehicle: water", "result": "6 of 6 and 8 of 8"},
      {"measurement": "survivor count", "setting": "dose: 180.0 mg/kg/injection, schedule: Q01DX015 (ip), vehicle: water", "result": "6 of 6"},
      {"measurement": "survivor count", "setting": "dose: 180.0 mg/kg/injection, schedule: Q07DX003 (ip), vehicle: water", "result": "6 of 6"},
      {"measurement": "survivor count", "setting": "dose: 256.0 mg/kg/injection, schedule: Q01DX001 (sc), vehicle: water", "result": "6 of 6"},
      {"measurement": "survivor count", "setting": "dose: 300.0 mg/kg/injection, schedule: Q01DX001 (ip), vehicle: saline", "result": "6 of 6"},
      {"measurement": "survivor count", "setting": "dose: 300.0 mg/kg/injection, schedule: Q01DX001 (ip), vehicle: water", "result": "6 of 6 and 8 of 8"},
      {"measurement": "survivor count", "setting": "dose: 300.0 mg/kg/injection, schedule: Q07DX003 (ip), vehicle: water", "result": "6 of 6"},
      {"measurement": "survivor count", "setting": "dose: 320.0 mg/kg/injection, schedule: Q01DX001 (sc), vehicle: water", "result": "6 of 6"},
      {"measurement": "survivor count", "setting": "dose: 400.0 mg/kg/injection, schedule: Q01DX001 (sc), vehicle: water", "result": "6 of 6"},
      {"measurement": "survivor count", "setting": "dose: 500.0 mg/kg/injection, schedule: Q01DX001 (ip), vehicle: saline", "result": "2 of 6"},
      {"measurement": "survivor count", "setting": "dose: 500.0 mg/kg/injection, schedule: Q01DX001 (ip), vehicle: water", "result": "0 of 8, 4 of 8, 6 of 6"},
      {"measurement": "survivor count", "setting": "dose: 500.0 mg/kg/injection, schedule: Q01DX001 (sc), vehicle: water", "result": "6 of 6"},
      {"measurement": "survivor count", "setting": "dose: 500.0 mg/kg/injection, schedule: Q07DX003 (ip), vehicle: water", "result": "6 of 6"},
      {"measurement": "survivor count", "setting": "dose: 625.0 mg/kg/injection, schedule: Q01DX001 (sc), vehicle: water", "result": "2 of 6"},
      {"measurement": "survivor count", "setting": "dose: 833.0 mg/kg/injection, schedule: Q01DX001 (ip), vehicle: saline", "result": "2 of 6"},
      {"measurement": "survivor count", "setting": "dose: 833.0 mg/kg/injection, schedule: Q01DX001 (ip), vehicle: water", "result": "0 of 8, 1 of 8, 1 of 6, 2 of 8"}
    ]},
    {"smiles": "CN(N=O)C(=O)N[C@@H](C=O)[C@@H](O)[C@H](O)[C@H](O)CO", "values": [
      {"measurement": "survivor count", "setting": "dose: 37.5 mg/kg/injection, schedule: Q04DX003 (ip), vehicle: saline", "result": "4 of 4"},
      {"measurement": "survivor count", "setting": "dose: 75.0 mg/kg/injection, schedule: Q04DX003 (ip), vehicle: saline", "result": "4 of 4"},
      {"measurement": "survivor count", "setting": "dose: 150.0 mg/kg/injection, schedule: Q04DX003 (ip), vehicle: saline", "result": "4 of 4"},
      {"measurement": "survivor count", "setting": "dose: 250.0 mg/kg/injection, schedule: Q01DX001 (ip), vehicle: citric acid", "result": "10 of 10"},
      {"measurement": "survivor count", "setting": "dose: 300.0 mg/kg/injection, schedule: Q01DX001 (ip), vehicle: citric acid", "result": "10 of 10"},
      {"measurement": "survivor count", "setting": "dose: 300.0 mg/kg/injection, schedule: Q04DX003 (ip), vehicle: saline", "result": "4 of 4"},
      {"measurement": "survivor count", "setting": "dose: 350.0 mg/kg/injection, schedule: Q01DX001 (ip), vehicle: citric acid", "result": "10 of 10 and 8 of 8"},
      {"measurement": "survivor count", "setting": "dose: 400.0 mg/kg/injection, schedule: Q01DX001 (ip), vehicle: citric acid", "result": "8 of 10 and 9 of 10"}
    ]}
  ]
}
